From PubChem BioAssay AID1487 (National Center for Advancing Translational Sciences (NCATS), 2009)
This is one part of the list. Shown are side measurements of this screen, not its main read-out; they come without a call. Compounds called inactive in the main read-out are mostly missing here. The note in brackets gives the kind of curve behind each potency; many fits are weak.

Test: qHTS Assay for Modulators of Lamin A Splicing
Conditions: HeLa LMNA splicing GFP/RFP minigene ratio, 48 h
Outline: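 Read-out is the ratio of GFP to DsRed2 object intensity, acquired by 488 nm laser-scanning cytometry on HeLa lamin A-EGFP minigene reporter cells. Compound incubation 48 hrs at 37 °C in Opti-MEM with 2% FBS; DMSO 0.5% final.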

[1] = measured here: RFP viability control channel
[2] = measured here: GFP splicing reporter channel

Compound	AC50 [1]	AC50 [2]
O=C(Nc1nc2ccccc2c(=O)[nH]1)c1ccccc1SCc1ccccc1	8.91 µM [rising, single point]	–
O=C(CCCN1CCC(O)(c2ccc(Cl)cc2)CC1)c1ccc(F)cc1	–	0.00355 µM [falling, full curve, poor fit]
COc1ccccc1CCNC(=O)c1cc(-c2ccncc2)nc2ccc(Br)cc12	35.5 µM [falling, single point]	2.82 µM [falling, single point]
Cc1ccc(Cl)cc1NC(=S)NCCCSC1CCCCC1	12.6 µM [falling, partial curve]	–
O=C(NCc1cn(-c2ccccc2)nc1-c1ccccc1)c1cccc([N+](=O)[O-])c1	17.8 µM [rising, single point]	–
Cc1cc(C)n(-c2ccc(C(=O)Nc3ccccc3N3CCOCC3)cc2)n1	–	14.1 µM [falling, single point]
Cc1cc(=O)[nH]c(SCC(=O)OCc2ccccc2)c1C#N	–	0.316 µM [falling, full curve]
CCOC(=O)c1sc2nc(CC(=O)OC)nc(NCc3ccc(Cl)cc3)c2c1C	5.62 µM [rising, single point]	–
CCCOc1ccc(NC(=O)CC2C(=O)N(CC)C(=S)N2Cc2cccs2)cc1 (stereo not drawn)	35.5 µM [falling, partial curve]	28.2 µM [falling, single point]
O=C(Cc1ccc(F)cc1)N1CCN=C1SCc1ccc([N+](=O)[O-])cc1	5.01 µM [rising, partial curve, poor fit]	–
C=CCOC(=O)C1=C(C)NC(SC)=C(C#N)C1c1ccc(OCC)cc1 (stereo not drawn)	12.6 µM [rising, partial curve, poor fit]	–
Cc1cccc(N2CCN(C(=O)c3cc4ccc5cccnc5c4[nH]3)CC2)c1C	–	3.16 µM [falling, single point]
CCOc1ccc2nc(NC(=O)c3cc([N+](=O)[O-])ccc3N3CCOCC3)sc2c1	31.6 µM [rising, single point]	12.6 µM [rising, single point]
C/C(N)=C(/C#N)C(=O)COC(=O)CNS(=O)(=O)c1ccc(F)c(F)c1F	0.0355 µM [falling, full curve]	35.5 µM [falling, partial curve, poor fit]
O=C(c1cccc(S(=O)(=O)N2CCCC2)c1)c1cccc(S(=O)(=O)N2CCCC2)c1	11.2 µM [rising, partial curve]	5.62 µM [rising, full curve]
O=C(NC(=S)Nc1nc(-c2ccccc2)cs1)c1ccco1	–	0.562 µM [rising, partial curve]
O=C(O)C1OC(Oc2cc3oc(-c4ccccc4)cc(=O)c3c(O)c2O)C(O)C(O)C1O (stereo not drawn)	–	0.708 µM [falling, full curve, poor fit]
Clc1ccccc1CNCCCSc1nnnn1-c1ccccc1	0.0631 µM [falling, full curve, poor fit]	0.1 µM [falling, full curve]
O=c1c2ccc([N+](=O)[O-])cc2ncn1CCOc1ccccc1	–	35.5 µM [falling, single point]
CCC(CC)NC(=O)CO/N=C/c1ccccc1OC(F)F	0.00398 µM [falling, partial curve, poor fit]	–
CC(=O)N1N=C(c2ccccc2)CC1c1cn(C)c2ccccc12 (stereo not drawn)	14.1 µM [rising, single point]	–
O=c1cc(N2CCCCC2)c(-c2ccccc2)nn1Cc1ccc(Cl)cc1	20 µM [falling, partial curve]	17.8 µM [falling, single point]
Cc1cc(C)cc(N2C(=O)CSC23C(=O)N(CC(N)=O)c2ccccc23)c1 (stereo not drawn)	–	1 µM [falling, single point]
O=C(O)c1cc(NS(=O)(=O)c2ccc(NC3CCCCC3)c([N+](=O)[O-])c2)cc(C(=O)O)c1	0.0224 µM [rising, full curve, poor fit]	–
CC1(C)C(c2ccc(Cl)cc2)=[N+]([O-])C2(CCCC/C2=N\O)N1O (stereo not drawn)	1 µM [falling, full curve, poor fit]	–
CCOC(=O)C1=C(Cc2ccc(C)cc2)C(=O)c2ccccc2C1=O	7.08 µM [rising, partial curve]	12.6 µM [falling, single point]
COCCN(Cc1ccc(C)c(Br)c1)S(=O)(=O)c1ccc2[nH]c(=O)ccc2c1	8.91 µM [falling, partial curve]	–

Single values from the results shown:
Entry for `Cc1cc(=O)[nH]c(SCC(=O)OCc2ccccc2)c1C#N` under AC50 [2]: 0.316 µM [falling, full curve]
Entry for `CCC(CC)NC(=O)CO/N=C/c1ccccc1OC(F)F` under AC50 [1]: 0.00398 µM [falling, partial curve, poor fit]
Entry for `C=CCOC(=O)C1=C(C)NC(SC)=C(C#N)C1c1ccc(OCC)cc1` (stereo not drawn) under AC50 [1]: 12.6 µM [rising, partial curve, poor fit]
Entry for `O=C(O)c1cc(NS(=O)(=O)c2ccc(NC3CCCCC3)c([N+](=O)[O-])c2)cc(C(=O)O)c1` under AC50 [1]: 0.0224 µM [rising, full curve, poor fit]

Carrying on.

Compound	AC50 [1]	AC50 [2]
Cc1cc(C(C)(C)C)oc1C(=O)N(CC(=O)NC1CCCC1)Cc1ccccc1Cl	20 µM [rising, single point]	–
COc1ccc(-c2cc(C(F)(F)F)nc(S(=O)(=O)CCCC(=O)Nc3cc(C)on3)n2)cc1OC	–	0.355 µM [falling, partial curve]
c1ccc2c(c1)OCC(CNc1ncnc3sccc13)O2 (stereo not drawn)	0.447 µM [rising, full curve]	0.224 µM [rising, full curve, poor fit]
CN(c1cccc(NC(=O)CN(c2cccc(Cl)c2)S(=O)(=O)c2ccc(Cl)cc2)c1)S(C)(=O)=O	15.8 µM [rising, single point]	–
NNc1nc2ccc(F)cc2s1	5.62 µM [rising, single point]	–
COc1ccc(NC(=O)NC23CC4(C)CC(C)(CC(C)(C4)C2)C3)cc1	7.08 µM [rising, full curve, poor fit]	–
C=CCN1C(c2ccc(Br)cc2)=CS/C1=C(/C#N)c1nnc(N2CCOCC2)n1-c1ccccc1	25.1 µM [rising, single point]	31.6 µM [rising, single point]
CCC(C)[C@H](NC(=O)N1CCN(c2cccc(C(F)(F)F)c2)CC1)C(=O)OC (stereo partly drawn)	10 µM [rising, partial curve, poor fit]	–
COc1ccc(/C=C/C(=O)c2ccccc2)cc1COc1ccccc1F	17.8 µM [falling, partial curve]	15.8 µM [falling, partial curve]
O=C(N/N=C/c1ccc(OCc2cnc(Cl)s2)cc1)c1ccncc1	0.00355 µM [falling, full curve, poor fit]	–
CC(C)OCCCN1CN(S(=O)(=O)c2ccc(Cl)cc2)c2nc3ccccc3nc21	35.5 µM [rising, single point]	–
CC(OC(=O)c1cccc(S(=O)(=O)Nc2cccc(C(F)(F)F)c2)c1)C(=O)Nc1ccc2c(c1)OCCO2 (stereo not drawn)	14.1 µM [rising, single point]	–
CCOC(=O)C1=C[C@@]2(CC)CCCN3CCc4c(n1c1ccccc41)[C@H]32	0.00355 µM [falling, full curve, poor fit]	0.00631 µM [falling, full curve]
COc1ccc(Cl)cc1Nc1nc(N)nc(C(F)(F)F)n1	–	7.08 µM [rising, full curve, poor fit]
COc1ccc(C)cc1-n1c(SCC(=O)NCc2ccco2)nc2c([nH]c3ccccc32)c1=O	–	10 µM [falling, partial curve, poor fit]
CNCCC=C1c2ccccc2C=Cc2ccccc21	6.31 µM [falling, single point]	0.158 µM [falling, full curve, poor fit]
COc1cccc(C(=O)NNC(=S)NC2CCCCC2)c1	14.1 µM [rising, single point]	–
O=C(CSc1nnc2ccc3ccccc3n12)N1CCOCC1	0.0224 µM [falling, full curve, poor fit]	0.0316 µM [falling, full curve, poor fit]
Cc1ccc(Cn2ncc3c(N4CCN(c5ccccc5C)CC4)ncnc32)cc1	10 µM [rising, partial curve]	–
O=[N+]([O-])/C(=C\Nc1ccccc1)S(=O)(=O)c1ccccc1	–	4.47 µM [falling, single point]
Cc1ccc(CCNC(=O)CCCn2c(=O)c3cccn3c3ccc(F)cc32)cc1	35.5 µM [falling, single point]	2.82 µM [falling, single point]
COc1ccc2nc(NCCCNC(=O)c3cc(OC)c(OC)c(OC)c3)c(C#N)cc2c1	7.08 µM [rising, partial curve]	–
Clc1ccccc1/C=N/NC1=Nc2cccc3cccc1c23	0.158 µM [rising, full curve, poor fit]	–
NCC(=O)CCC(=O)O	0.000794 µM [rising, full curve, poor fit]	5.01 µM [rising, partial curve, poor fit]
Cc1ccc(C(=O)N/C(=C\C=C\c2ccccc2)C(=O)NCc2ccco2)cc1	31.6 µM [rising, single point]	31.6 µM [rising, single point]
NC(=O)C[C@@H]1NC(=O)c2cc([N+](=O)[O-])cc(F)c2NCCCC[C@@H](C(N)=O)NC(=O)[C@H](CO)NC1=O	0.00501 µM [falling, full curve, poor fit]	0.00501 µM [falling, full curve, poor fit]
COc1ccc(N(C)S(=O)(=O)c2cccc(C(=O)NC3CCC(C)CC3)c2)cc1 (stereo not drawn)	0.0447 µM [falling, full curve, poor fit]	0.355 µM [falling, partial curve, poor fit]
